Reference: paper PMC8063000
These are yes or no findings as the source states them, for the method shown. Binding seen in cells or lysates may run through a third protein. Some binding calls cover weakened binding; strength is not graded here. Where a sequence is shown, tags or fusion partners need not be part of it.

Protein sequences, listed by entry. Tags and fused reporters are not part of them. Lines headed by an entry give the natural chain unless they say otherwise; changes in a name come on top. Chains listed by the source or under a name are the forms on record and can include a tag or linker.
UXT-V1-M13G-HA (Q9UBK9-2, form named): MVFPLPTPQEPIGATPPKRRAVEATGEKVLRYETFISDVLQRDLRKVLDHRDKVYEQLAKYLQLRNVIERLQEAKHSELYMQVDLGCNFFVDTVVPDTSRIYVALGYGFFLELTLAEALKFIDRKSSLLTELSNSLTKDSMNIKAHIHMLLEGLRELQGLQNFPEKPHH

Tests used:
[1] = molecular target: T1, 2xFLAG-Fbxo7 (wild type) (human) (UniProt Q9Y3I1); experiment: co-IP; HEK293T transfected with FLAG-Fbxo7 and UXT-V1-M13G or UXT-V2; NP-40 lysis buffer; extracts immunoprecipitated (antibody not told), SDS-PAGE and immunoblot
T1 sequence: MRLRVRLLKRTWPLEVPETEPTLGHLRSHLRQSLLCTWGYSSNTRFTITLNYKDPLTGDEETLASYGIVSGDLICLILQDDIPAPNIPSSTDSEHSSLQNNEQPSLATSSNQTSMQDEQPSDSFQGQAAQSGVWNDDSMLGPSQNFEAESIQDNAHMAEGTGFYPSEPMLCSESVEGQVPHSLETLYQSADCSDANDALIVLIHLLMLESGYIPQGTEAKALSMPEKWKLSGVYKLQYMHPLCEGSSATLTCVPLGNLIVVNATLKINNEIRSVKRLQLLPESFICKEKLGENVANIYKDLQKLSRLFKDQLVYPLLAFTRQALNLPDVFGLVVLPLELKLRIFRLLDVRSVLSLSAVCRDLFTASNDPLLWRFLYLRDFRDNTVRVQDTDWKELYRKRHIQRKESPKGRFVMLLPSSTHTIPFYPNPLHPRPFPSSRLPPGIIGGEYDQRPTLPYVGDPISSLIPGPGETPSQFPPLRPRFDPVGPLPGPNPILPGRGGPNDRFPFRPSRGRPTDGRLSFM

[2] = molecular target: T1, 2xFLAG-Fbxo7 (wild type) (human); experiment: co-IP; HEK293T co-transfected with 2xFLAG-Fbxo7 plasmids and UXT-V2-HA; NP-40 lysis buffer; immunoprecipitated with agarose anti-FLAG; immunoblot of input and eluted proteins
[3] = molecular target: T2, 2xFLAG-Fbxo7-ΔF-box (human) (UniProt Q9Y3I1); experiment: as above
T2 sequence: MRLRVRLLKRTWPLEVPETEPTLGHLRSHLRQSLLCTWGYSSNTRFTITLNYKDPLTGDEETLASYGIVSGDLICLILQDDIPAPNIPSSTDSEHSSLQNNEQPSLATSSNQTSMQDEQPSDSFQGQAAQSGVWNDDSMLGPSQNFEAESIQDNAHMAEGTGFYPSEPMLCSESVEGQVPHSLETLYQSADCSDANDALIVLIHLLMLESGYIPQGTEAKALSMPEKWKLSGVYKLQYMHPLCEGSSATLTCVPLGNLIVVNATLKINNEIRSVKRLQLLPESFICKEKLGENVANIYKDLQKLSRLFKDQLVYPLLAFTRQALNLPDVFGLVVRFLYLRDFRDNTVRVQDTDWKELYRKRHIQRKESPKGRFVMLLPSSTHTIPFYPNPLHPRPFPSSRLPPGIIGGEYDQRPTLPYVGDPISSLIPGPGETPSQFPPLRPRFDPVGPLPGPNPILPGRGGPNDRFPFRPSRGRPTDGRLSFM

binding [1]	binding [2]	binding [3]	Substance
binds	–	–	UXT-V1-M13G-HA (from UniProt Q9UBK9-2 1-169)
binds	binds	binds	UXT-V2-HA (Ubiquitously eXpressed Transcript isoform 2) (from UniProt Q9UBK9-1 1-157)
